This is an account of results in the supplement of paper PMC7238544.

In test [1] the test system is hAMSC donor 1. Nature of the test: Hoechst total cell count ratio vs vehicle control; higher = more cells (less toxicity).
For test [2], the system named is hAMSC donor 2. The test is described as above.
The subject of test [3] is hAMSC donor 1. Put plainly: transgenic luciferase activity (RLU/mg protein) fold change vs vehicle control (ratio); higher = more transgene expression.
Test [4] relates to hAMSC donor 2. The test is described as above.
The test system of test [5] is hAMSC donor 1. Nature of the test: transfection efficiency (EGFP+ cells / Hoechst count) fold change vs vehicle control (ratio); hAMSC are human adipose-derived mesenchymal stem cells given an EGFP-luciferase plasmid by lipofection; higher = enhanced transfection.
Test [6] relates to hAMSC donor 2. Described as above.
Where [7] appears, read: priming compound concentration 0.2 µM.
Where [8] appears, read: priming compound concentration 1.7 µM.
The mark [9] stands for this setting: priming compound concentration 13 µM.

Each structure is given as a SMILES string. Structures can show the parent of a compound that is named as a salt. ± gives the standard deviation of the averaged measurements. The list shows a part of the results. The data scatter; read single values as rough.

Consider `Oc1ccc(/C=C/c2cc(O)cc(O)c2)cc1` [Resveratrol], for which the “Hoechst total cell count ratio” value in the test with hAMSC donor 1 [1] (setting [7]) amounted to 1.3 ± 0.14; in the test with hAMSC donor 1 [1] (setting [8]), 1.27 ± 0.11; with hAMSC donor 1 [1] (setting [9]), 1.26 ± 0.18; with hAMSC donor 2 [2] (setting [7]) it was 1.16 ± 0.095; in the test with hAMSC donor 2 [2] (setting [8]), 1.21 ± 0.039; in the test on hAMSC donor 2 [2] (setting [9]) it was 1.19 ± 0.14. Also, the transgenic luciferase activity is 0.759 ± 0.084 in the test on hAMSC donor 1 [3] (setting [7]); 4.25 ± 0.37 in the test on hAMSC donor 1 [3] (setting [8]); 0.714 ± 0.3 with hAMSC donor 2 [4] (setting [7]); 1.38 ± 0.23 with hAMSC donor 2 [4] (setting [8]); 2.26 ± 0.5 in the test with hAMSC donor 2 [4] (setting [9]). Further, the transfection efficiency was 1.04 ± 0.14 in the test on hAMSC donor 1 [5] (setting [7]); 1.19 ± 0.22 in the test on hAMSC donor 1 [5] (setting [8]); 1.26 ± 0.16 in the test with hAMSC donor 1 [5] (setting [9]); 1.11 ± 0.084 in the test with hAMSC donor 2 [6] (setting [7]); 1.32 ± 0.11 in the test on hAMSC donor 2 [6] (setting [8]); 1.5 ± 0.45 in the test on hAMSC donor 2 [6] (setting [9]).
For `CN1[C@@H]2CC[C@H]1C[C@@H](OC(c1ccccc1)c1ccccc1)C2` [Benztropine mesylate], the “Hoechst total cell count ratio” value was 1.1 ± 0.038 in the test on hAMSC donor 1 [1] (setting [7]); 1.16 ± 0.09 with hAMSC donor 1 [1] (setting [8]); 1.44 ± 0.058 in the test on hAMSC donor 1 [1] (setting [9]); 0.908 ± 0.25 in the test with hAMSC donor 2 [2] (setting [7]); 1.16 ± 0.13 with hAMSC donor 2 [2] (setting [8]); 1.57 ± 0.21 in the test with hAMSC donor 2 [2] (setting [9]). In addition, the transgenic luciferase activity in the test on hAMSC donor 1 [3] (setting [7]) came to 0.719 ± 0.14; with hAMSC donor 1 [3] (setting [8]), 1.16 ± 0.12; in the test on hAMSC donor 2 [4] (setting [7]), 0.879 ± 0.061; in the test on hAMSC donor 2 [4] (setting [8]), 0.979 ± 0.39; in the test with hAMSC donor 2 [4] (setting [9]), 0.395 ± 0.048. Further, the transfection efficiency worked out at 1.16 ± 0.21 in the test with hAMSC donor 1 [5] (setting [7]); 1.31 ± 0.55 in the test with hAMSC donor 1 [5] (setting [8]); 0.899 ± 0.2 in the test with hAMSC donor 1 [5] (setting [9]); 1.42 ± 0.31 with hAMSC donor 2 [6] (setting [7]); 1.35 ± 0.12 in the test on hAMSC donor 2 [6] (setting [8]); 0.636 ± 0.098 in the test with hAMSC donor 2 [6] (setting [9]).
Turning to `O=C1Cc2cc(CCN3CCN(c4nsc5ccccc45)CC3)c(Cl)cc2N1` [Ziprasidone], the “Hoechst total cell count ratio” value with hAMSC donor 1 [1] (setting [7]) came out at 1.32 ± 0.096; in the test on hAMSC donor 1 [1] (setting [8]), 1.21 ± 0.11; in the test with hAMSC donor 1 [1] (setting [9]), 1.51 ± 0.31; with hAMSC donor 2 [2] (setting [7]), 1.17 ± 0.16; in the test with hAMSC donor 2 [2] (setting [8]), 1.14 ± 0.11; in the test on hAMSC donor 2 [2] (setting [9]) it was 1.4 ± 0.18. In addition, the transgenic luciferase activity with hAMSC donor 1 [3] (setting [8]) is 0.296 ± 0.042; with hAMSC donor 1 [3] (setting [9]), 0.792 ± 0.26; in the test on hAMSC donor 2 [4] (setting [7]), 1.14 ± 0.51; in the test on hAMSC donor 2 [4] (setting [8]), 0.788 ± 0.069; in the test with hAMSC donor 2 [4] (setting [9]), 0.562 ± 0.19. In addition, the transfection efficiency in the test on hAMSC donor 1 [5] (setting [7]) worked out at 1.15 ± 0.28; in the test with hAMSC donor 1 [5] (setting [8]), 0.924 ± 0.32; in the test on hAMSC donor 1 [5] (setting [9]), 0.744 ± 0.19; in the test on hAMSC donor 2 [6] (setting [7]) it was 1.1 ± 0.12; with hAMSC donor 2 [6] (setting [8]), 1.06 ± 0.1; in the test on hAMSC donor 2 [6] (setting [9]) it was 0.478 ± 0.056.
With `C[C@]12CCC(=O)C=C1CC[C@@H]1[C@@H]2C(=O)C[C@@]2(C)[C@H]1CC[C@]2(O)C(=O)CO` [Cortisone], the “Hoechst total cell count ratio” value was determined as 1.06 ± 0.091 with hAMSC donor 1 [1] (setting [7]); 1.37 ± 0.11 in the test with hAMSC donor 1 [1] (setting [8]); 1.31 ± 0.12 in the test with hAMSC donor 1 [1] (setting [9]); 1.13 ± 0.037 with hAMSC donor 2 [2] (setting [7]); 1.15 ± 0.12 in the test on hAMSC donor 2 [2] (setting [8]); 0.982 ± 0.084 with hAMSC donor 2 [2] (setting [9]). The transgenic luciferase activity in the test with hAMSC donor 1 [3] (setting [7]) is 0.785 ± 0.26; with hAMSC donor 1 [3] (setting [8]), 2.21 ± 0.49; in the test with hAMSC donor 2 [4] (setting [7]) it was 1.47 ± 0.41; with hAMSC donor 2 [4] (setting [8]) it was 0.829 ± 0.18; in the test with hAMSC donor 2 [4] (setting [9]), 0.702 ± 0.19. Further, the transfection efficiency turned out to be 1.39 ± 0.06 with hAMSC donor 1 [5] (setting [7]); 0.986 ± 0.27 in the test with hAMSC donor 1 [5] (setting [8]); 1.1 ± 0.12 with hAMSC donor 1 [5] (setting [9]); 1.31 ± 0.087 in the test on hAMSC donor 2 [6] (setting [7]); 1.17 ± 0.16 in the test on hAMSC donor 2 [6] (setting [8]); 1.03 ± 0.14 with hAMSC donor 2 [6] (setting [9]).
As for `Nc1nc(F)nc2c1ncn2[C@@H]1O[C@H](CO)[C@@H](O)[C@@H]1O` [Fludarabine], the “Hoechst total cell count ratio” value in the test on hAMSC donor 1 [1] (setting [7]) was 1.55 ± 0.077; in the test on hAMSC donor 1 [1] (setting [8]) it was 1.17 ± 0.17; with hAMSC donor 1 [1] (setting [9]), 1.46 ± 0.11; in the test on hAMSC donor 2 [2] (setting [7]) it was 1.14 ± 0.09; in the test with hAMSC donor 2 [2] (setting [8]) it was 1.13 ± 0.088; with hAMSC donor 2 [2] (setting [9]), 1.2 ± 0.25. Also, the transgenic luciferase activity is 0.836 ± 0.14 in the test with hAMSC donor 1 [3] (setting [8]); 0.567 ± 0.22 with hAMSC donor 1 [3] (setting [9]); 0.853 ± 0.036 with hAMSC donor 2 [4] (setting [7]); 0.53 ± 0.17 in the test with hAMSC donor 2 [4] (setting [8]); 0.656 ± 0.23 with hAMSC donor 2 [4] (setting [9]). Further, the transfection efficiency amounted to 0.719 ± 0.051 with hAMSC donor 1 [5] (setting [7]); 1.13 ± 0.36 with hAMSC donor 1 [5] (setting [8]); 0.903 ± 0.27 with hAMSC donor 1 [5] (setting [9]); 0.895 ± 0.1 with hAMSC donor 2 [6] (setting [7]); 0.868 ± 0.063 in the test with hAMSC donor 2 [6] (setting [8]); 0.942 ± 0.17 with hAMSC donor 2 [6] (setting [9]).
As to `CCC(C)n1ncn(-c2ccc(N3CCN(c4ccc(OCC5COC(Cn6cncn6)(c6ccc(Cl)cc6Cl)O5)cc4)CC3)cc2)c1=O` (configuration not stated) [Itraconazole], the “Hoechst total cell count ratio” value with hAMSC donor 1 [1] (setting [7]) is 1.41 ± 0.22; in the test with hAMSC donor 1 [1] (setting [8]), 1.18 ± 0.17; in the test on hAMSC donor 1 [1] (setting [9]), 0.91 ± 0.037; in the test with hAMSC donor 2 [2] (setting [7]), 1.02 ± 0.19; in the test on hAMSC donor 2 [2] (setting [8]), 1.69 ± 0.066; with hAMSC donor 2 [2] (setting [9]), 0.81 ± 0.12. The transgenic luciferase activity was found to be 0.594 ± 0.33 in the test with hAMSC donor 1 [3] (setting [8]); 0.183 ± 0.12 in the test with hAMSC donor 1 [3] (setting [9]); 0.515 ± 0.033 in the test on hAMSC donor 2 [4] (setting [7]); 0.614 ± 0.046 with hAMSC donor 2 [4] (setting [8]); 0.318 ± 0.14 in the test on hAMSC donor 2 [4] (setting [9]). In addition, the transfection efficiency in the test on hAMSC donor 1 [5] (setting [7]) was determined as 0.946 ± 0.16; with hAMSC donor 1 [5] (setting [8]), 1.27 ± 0.11; in the test on hAMSC donor 1 [5] (setting [9]), 2.3 ± 0.4; in the test with hAMSC donor 2 [6] (setting [7]) it was 0.839 ± 0.13; with hAMSC donor 2 [6] (setting [8]) it was 0.708 ± 0.021; in the test on hAMSC donor 2 [6] (setting [9]) it was 0.708 ± 0.2.
